Experimental data taken from patent US20220411750A1, “CELL STRUCTURE, PRODUCTION METHOD THEREOF, AND METHOD FOR EVALUATING HEPATOTOXICITY OF SUBSTANCE TO BE TESTED” (TOPPAN INC., priority 2019, published 2022).

Tested on: cell structure having a liver sinusoidal network produced using CMF (Example A)
Test: Toxicity evaluation by ATP assay, cell structure of Example A (produced using CMF)
Settings: Homo sapiens, read-out: IC50 Example A

CCCCc1oc2ccccc2c1C(=O)c1cc(I)c(OCCN(CC)CC)c(I)c1 [Amiodarone] showed an IC50 of 14.1 µM.
